Assay results from PMC9341442.
These are yes or no findings as the source states them, for the method shown. In cells and extracts the contact can be indirect. Some results given as binding are weak or reduced against the parent protein; the word gives no strength. For some assays here: Where a sequence is shown, tags or fusion partners need not be part of it.

Tests used:
[1] = target: T1, recombinant B7-H3 (human) (UniProt Q5ZPR3); experiment: co-IP; NKL NP40 lysate incubated with recombinant B7-H3 for 1 h, then anti-human B7-H3 or anti-goat IgG 30 min at 4°C, Dynabeads Protein G overnight, western blot; only the target purified
T1 sequence: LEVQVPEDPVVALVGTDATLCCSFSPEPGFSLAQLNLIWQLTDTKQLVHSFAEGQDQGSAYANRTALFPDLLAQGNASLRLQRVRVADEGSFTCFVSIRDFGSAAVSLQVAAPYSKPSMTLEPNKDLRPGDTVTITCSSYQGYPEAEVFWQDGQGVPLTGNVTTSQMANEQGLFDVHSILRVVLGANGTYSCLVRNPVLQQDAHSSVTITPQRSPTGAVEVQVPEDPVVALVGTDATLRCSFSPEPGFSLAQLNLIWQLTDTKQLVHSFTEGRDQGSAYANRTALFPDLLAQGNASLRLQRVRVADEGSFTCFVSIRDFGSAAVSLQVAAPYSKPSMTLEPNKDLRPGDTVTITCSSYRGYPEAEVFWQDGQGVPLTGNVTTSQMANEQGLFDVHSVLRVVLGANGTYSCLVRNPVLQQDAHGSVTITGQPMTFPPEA

[2] = target: T2, Halo-tagged B7-H3 (human) (UniProt Q5ZPR3); experiment: pull-down; called co-IP by the paper; Halo-tagged B7-H3 from HEK293 NP40 lysate bound to Magne HaloTag beads overnight at 4°C, incubated with Jurkat cells, lysed in 100 mM octyl glucoside, washed, released with TEV protease, western blot; only the target purified
T2 sequence: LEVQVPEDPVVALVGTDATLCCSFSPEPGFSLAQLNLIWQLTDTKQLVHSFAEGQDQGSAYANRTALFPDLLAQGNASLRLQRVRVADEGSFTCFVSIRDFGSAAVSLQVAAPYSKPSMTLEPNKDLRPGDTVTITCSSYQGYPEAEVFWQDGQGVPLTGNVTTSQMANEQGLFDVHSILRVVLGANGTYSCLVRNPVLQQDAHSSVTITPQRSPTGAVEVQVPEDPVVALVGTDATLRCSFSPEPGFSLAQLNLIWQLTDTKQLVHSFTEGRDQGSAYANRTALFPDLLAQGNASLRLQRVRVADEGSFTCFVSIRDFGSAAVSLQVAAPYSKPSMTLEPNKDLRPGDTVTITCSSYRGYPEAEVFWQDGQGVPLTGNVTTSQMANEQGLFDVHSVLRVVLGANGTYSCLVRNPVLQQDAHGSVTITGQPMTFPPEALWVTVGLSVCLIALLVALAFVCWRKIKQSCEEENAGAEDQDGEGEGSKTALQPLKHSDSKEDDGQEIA

B1: angio-associated migratory cell protein (AAMP), endogenous (protein, UniProt Q13685 1-434)
chain: MESESESGAAADTPPLETLSFHGDEEIIEVVELDPGPPDPDDLAQEMEDVDFEEEEEEEGNEEGWVLEPQEGVVGSMEGPDDSEVTFALHSASVFCVSLDPKTNTLAVTGGEDDKAFVWRLSDGELLFECAGHKDSVTCAGFSHDSTLVATGDMSGLLKVWQVDTKEEVWSFEAGDLEWMEWHPRAPVLLAGTADGNTWMWKVPNGDCKTFQGPNCPATCGRVLPDGKRAVVGYEDGTIRIWDLKQGSPIHVLKGTEGHQGPLTCVAANQDGSLILTGSVDCQAKLVSATTGKVVGVFRPETVASQPSLGEGEESESNSVESLGFCSVMPLAAVGYLDGTLAIYDLATQTLRHQCQHQSGIVQLLWEAGTAVVYTCSLDGIVRLWDARTGRLLTDYRGHTAEILDFALSKDASLVVTTSGDHKAKVFCVQRPDR
[1]
  binding: binds
[2]
  binding: binds
